Literature values, collected in US9199026B2, “Modular extracorporeal systems and methods for treating blood-borne diseases” (SOMERSET GROUP ENTERPRISES, INC., priority 2011, dated 2015).

Details: no group stated

pKa: 7.5
Compound: CCC[C@@H]1C[C@@H](C(=O)N[C@@H]([C@H]2O[C@H](SC)[C@H](O)[C@@H](O)[C@H]2O)[C@H](C)Cl)N(C)C1 [Clindamycin]
